Our source for the z-score values is PubChem BioAssay AID1347423 (Functional Genomics Laboratory (NCATS/FGL), 2020).

In all, about 52,000 sequences went through this assay and about 210 (0.4%) were called active.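 How the source made its calls: active means gene whose silencing raises cell survival under the drug, median off-target-corrected z-score across its silencing RNAs 2 or more; inactive means the rest.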 This is one part of the list.

This assay is described as follows: Resistance to Poly (ADP-Ribose) Polymerase inhibitor: Gene Identification via Genome-wide siRNA Screen. Particulars: mouse BRCA2 R2336H ES cells, olaparib, CellTiter-Glo viability; stronger effect = higher value. A digest of the protocol: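 Genome-wide siRNA screen (3 siRNAs/gene, 20 nM) in mouse ES cells carrying hypomorphic BRCA2 R2336H; olaparib 500 nM added 48 h post-transfection, CellTiter-Glo viability 72 h later. Normalized to plate-median negative control; MAD z-scores, gene median, seed-adjusted.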
Consider GGCUCAAGGCACUCAAUACTT against Olfr550, for which the z-score was inactive: 0.719.

For the sequence “GCUACUAAAUUCUGUUUUGTT against 8430427H17Rik”, the z-score was inactive: 1.94.

In the case of AACCAGAGGUCCUAAAUACTT against Mmp28, the z-score was inactive: 1.09.

Turning to CCAAACACAGUUGCACAGGTT against Apg4a, the z-score was inactive: -0.27.

Regarding CGGACUUACCAAAAGCGCATT against Lss, the z-score is inactive: 0.0975.

For “GGAAAUUUGAGACUCUGCUTT against 4933414E04Rik”, the z-score was inactive: 0.909.

With CGAGAUAGAGUACAUCUUCTT against Vegfa, the z-score is inactive: 0.218.

In the case of GGGAAGUCUACAUAAAUCCTT against Gm1012, the z-score was inactive: -0.0833.

As for CCACUUCUCUAAGACAAUCTT against Acox3, the z-score is inactive: -0.352.

GGUGGCUUAGCACGAAGCATT against Elk1: the z-score was inactive: -1.08.

On to “CCCAAACAACUUGUAAAUCTT against 2310005N03Rik”, for which the z-score was inactive: 0.668.

As for CCUGAAUUAUGUGUAACUUTT against Ywhab, the z-score is inactive: -0.339.

For the sequence GCAGCAUCCCUACACGUUCTT against Galnt2, the z-score was inactive: 0.516.

Consider GGAGCCAGAACUAGAAGCUTT against Nol3, for which the z-score is inactive: 0.382.

“GGAGUAAAGACAUUCAGGATT against C330026N02Rik”: the z-score was inactive: 0.32.

Turning to “GCAAUCCAAGCCAAACUCCTT against B130021E18”, the z-score is inactive: -0.69.

On to GGUGUCAGAACAAGGUUUGTT against Pdcd5, for which the z-score is inactive: -0.71.

GGUUCUAUGGCUCUCAAGATT against Ptgir: the z-score is inactive: 1.09.

For GCUGGUUAUUCUCUUAUAGTT against Sdpr, the z-score was inactive: -0.511.

Consider CCACUCUCUAGUCCUCAACTT against Svs3, for which the z-score is inactive: 0.223.

As for CCUUUCCAUCCCAGAAAAATT against Flj39647, the z-score was inactive: 0.958.

On to GGUAUUUGCUGAACUGUUUTT against Ckmt1, for which the z-score was inactive: -0.979.

Regarding “GGUCUGGUGGAGUUGAGAATT against 2610001E17Rik”, the z-score was inactive: -0.26.

For the sequence GGAGGUGCUAAGGAGAAGATT against Plagl2, the z-score is inactive: -0.779.

For GGAAAACUUGCUUACGCAUTT against Zfp146, the z-score is inactive: 0.589.

For “CCAUUGGUACUCUUUCCAATT against 3000002B06Rik”, the z-score is inactive: -0.588.

As to “GGUGAGACAAAGGAACAAGTT against 1810057C19Rik”, the z-score was inactive: 0.8.

As to CCUUAAGCUAUCAAAUAAGTT against Zfp131, the z-score was inactive: 0.753.

Regarding “GGAGAUUCUCCAUAACCUGTT against 2410006N06Rik”, the z-score was inactive: 2.37.

For GGGCUAAGGCAAAAACUGATT against LOC545554, the z-score was inactive: -0.24.

On to “GGAAUAUCAGAAUACCAUCTT against 2610019P18Rik”, for which the z-score is inactive: 0.165.

On to GGAAUGCUACUGCUCUCCUTT against P518, for which the z-score was inactive: 1.63.

Consider CGGAUGUUCCAUUUGCUGATT against Sprr2g, for which the z-score is inactive: -0.0898.

With CGUGUAGACUUUGAGACGUTT against BC037527, the z-score is inactive: 2.48.

For the sequence “CCUUAAAUGUGGACCAUAATT against A730069N07Rik”, the z-score was inactive: 1.68.

In the case of GGUCAAGACACAGUUUAACTT against Tgifx1, the z-score was inactive: 1.15.

As for GGUGAAUAUUUCAAUGGCCTT against Klhdc4, the z-score was inactive: 0.935.

Regarding GGACUACUUCCCAAGAAUUTT against Gle1l, the z-score was inactive: -0.349.

Consider “GGGACAGUCUUCAGUGACATT against 0610037L13Rik”, for which the z-score is inactive: -2.25.

As for “GGCUAUUAUUGAGAGUUCATT against 8430437G11Rik”, the z-score was inactive: 0.104.

For GGCAGGAACUACCUCUUCATT against Sema5b, the z-score is inactive: 0.335.

Regarding GCGGGAAGCCUUUAUCUCUTT against Aanat, the z-score is inactive: -0.477.

Regarding GCUCAGUCAUGUCUUGUGCTT against Tagap, the z-score was inactive: -1.14.

As for GGACAAUUUAUUCCAGUUUTT against Dlx1, the z-score was inactive: -1.95.

On to GGUGAUCAAGGACAUUUAATT against Psma5, for which the z-score is inactive: -1.27.

On to GGAAUUUUGCCAGCAAAUGTT against Edaradd, for which the z-score was inactive: 0.247.

For GGAUGACUAGACAGGAAAATT against Ptma, the z-score was inactive: 2.2.

As to CCUGGAGUGAAGUACAAAUTT against Zfp458, the z-score is inactive: 2.26.

With CGAGCCGUUAAACAGUUCUTT against BC065078, the z-score was inactive: 0.717.

Take CCCUCUCUACGUGAUUCAATT against Brd2: the z-score is inactive: -0.0891.

Consider “GCUAAACUUAAGUCCAUCATT against 2610524B01Rik”, for which the z-score is inactive: -1.34.

Consider GGUGAUUCCCGAUUAUGUGTT against Ercc1, for which the z-score is inactive: -0.912.

As to GCUGGUUACAUAAAGCUACTT against Mcart1, the z-score is inactive: 1.24.

For “GGAGUUCCAGCUGUUGCUGTT against 4832406C22”, the z-score was inactive: 0.744.

As for GGACUCAGAAGUGAACAUATT against Spata7, the z-score is inactive: -2.34.

In the case of GGCUGUCUCAGAGAAGAAATT against Phxr1, the z-score is inactive: -1.25.

For the sequence CCUCAAAAAUGGGUACGGUTT against Sfrs6, the z-score was inactive: 0.674.

“GGACAUAACUGUUUUAACATT against 2810443J12Rik”: the z-score was inactive: -0.0451.

For the sequence GAAGAUUAUCCAUUGCCCGTT against Sprrl9, the z-score is inactive: -0.235.

Turning to CGCCAAUAUGGCCAUUGACTT against Zfpn1a2, the z-score was inactive: -2.29.

Consider GGUACACUAUGAGGUCUGCTT against Traf2, for which the z-score was inactive: -0.195.

In the case of GCAGAUCCAAGAACAUAAGTT against Acrbp, the z-score was inactive: 1.39.

Turning to “GCAAUUUGGAACACCUAAGTT against 2810485I05Rik”, the z-score was inactive: 0.611.

On to GGUACAAGUUAAGGUCUACTT against V1rf4, for which the z-score is inactive: -1.4.

For “CGCCGCACAGUUAAUGCUUTT against D14Ertd209e”, the z-score was inactive: -0.108.

As for GCUAACUAACGAGAUGAUUTT against T, the z-score was inactive: 0.0615.

As to GAGUUACUGGAAUUAAAGGTT against Nrg4, the z-score is inactive: -0.0572.

In the case of GGUGGGAUCGAGGAACAAATT against Ext2, the z-score was inactive: 0.736.

As to GCAUGAUACCAAUAGAGAATT against Pte2b, the z-score is inactive: -0.719.

Consider CCAAUAAGGUCGUUUCUAUTT against Olfr589, for which the z-score was inactive: -1.64.

With GGAUAGGGAUUGGAGAUAUTT against Obfc1, the z-score was inactive: 0.148.

In the case of GCAGUUGAGACAAUAUGUCTT against Trim31, the z-score is inactive: 1.35.

For the sequence GGGUUGGAUAAGGAGAAAATT against Polk, the z-score was inactive: -1.34.

On to CCAGUGGUAUGAGGUUGAATT against Cpne3, for which the z-score is inactive: 0.326.

With GGCUAUUUUUCAGGUUCCUTT against Olfr747, the z-score was inactive: -1.01.

With CCCACAUAAAUAAGUUGGUTT against Olfr996, the z-score is inactive: -2.59.

In the case of CGUGAGCAGUCAAACCCAGTT against Il27ra, the z-score is inactive: 0.605.

With “GGUUGAGGACAUAAGACCCTT against 4932416A11Rik”, the z-score was inactive: 1.73.

GGCCACCAUUUCUGAAAUCTT against Gpsn2: the z-score is inactive: 0.287.

Regarding CGGAUGUUCGUGUUAAAAATT against Plek, the z-score was inactive: 0.211.

Consider GGAAAAAUAGGGUGUUUUGTT against Tdg, for which the z-score was inactive: 3.39.

Take CCCUGAUCAUGUUUUGUCCTT against Mrps24: the z-score was inactive: 1.44.

For GGCGAGUUCUACAGUUACUTT against Cherp, the z-score is inactive: -1.36.

“GGAAGUCAGUAAUCCUCUGTT against 2410146L05Rik”: the z-score is inactive: -1.38.

In the case of “CGAAUCACUGCUGUUCCAUTT against 5830411N06Rik”, the z-score was inactive: -0.301.

Consider GCUCCAAGCUUCUCUAUAGTT against V1rh7, for which the z-score was inactive: 0.708.

Turning to GGUCUCCUGAUGGAGAAGATT against Muc5b, the z-score was inactive: -0.954.

As for UGUUUGGGCCCAAAGGCUUTT against Crip1, the z-score is inactive: 0.236.

As for GGGAAGAAAUCAACGAUAATT against Gpa33, the z-score was inactive: 0.809.

As to GGUUCAGAAAUUUGUCAACTT against Nola2, the z-score was inactive: 0.233.

Consider GAUCAAGGACCGGUACCUGTT against Lmo1, for which the z-score is inactive: -0.211.

For GGUCAUUUUGCAUGAUGUCTT against Trpv3, the z-score was inactive: 0.235.

With GGAGAAAUCCCUUCACGGUTT against Mas1, the z-score is inactive: 0.0872.

For the sequence GGAAAAUCAACUUCACAAATT against Shox2, the z-score was inactive: 0.348.

GGAACAGGUAAAGAUCCCATT against Repin1: the z-score was inactive: 0.768.

For the sequence GGGUGUAGUCCUGAAAGUATT against Arpc5l, the z-score is inactive: 1.34.

Turning to GGUGAUGAAGUGCGUCCUGTT against Chga, the z-score is inactive: -0.577.

With CGUGCUUUAUUGGAUCUGATT against Thedc1, the z-score is inactive: 0.466.

In the case of “GCUUUAAUUGUGAAAGCACTT against C030011O14Rik”, the z-score was inactive: -0.849.

As for GGACUUAUCAAGCUGGUUUTT against Rps25, the z-score was inactive: -2.47.

On to CGUGGCUCACAAUAAAUGCTT against Adn, for which the z-score was inactive: 0.527.

In the case of GGCUACGUGUCAAUAGACATT against Pscd2, the z-score was inactive: -0.455.

Regarding GGAAUAGGGAGGUAACCAGTT against Olfr1394, the z-score is inactive: -0.841.

Take CCUGAGAUGUUUCAACUGCTT against Plekha3: the z-score is inactive: -0.207.
